This note sets out measurements from PubChem BioAssay AID493014 (National Center for Advancing Translational Sciences (NCATS), 2011).

The nature of this experiment: qHTS Assay to Find Inhibitors of Chronic Active B-Cell Receptor Signaling. The conditions noted are these: ABC-DLBCL IkBa-CBG/CBR reporter, luminescence ratio (green luciferase fused to IkBa over red control in TMD8 lymphoma cells), 4 h. Put shortly: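 TMD8 human ABC-DLBCL cells with doxycycline-inducible IκBα–green luciferase fusion and unfused red luciferase, in 0.5% FBS medium; compounds up to 46 uM, 4 h at 37C. Green/red luminescence ratio, filter-overlap corrected, fitted to concentration-response curves.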

Where [1] appears, read: measured here: CBR red luminescence, cell number.

Structures are written as SMILES. The list shows a part of the results. Further columns of the screen follow, without active or inactive calls. Compounds called inactive in the main read-out are mostly missing here. Potencies come from curve fits of mixed quality, noted in brackets.

`Nc1nc(OCC(F)(F)F)cc(Oc2ccccc2F)n1`: the AC50 under setting [1] is 11.2 µM [rising, partial curve, poor fit]. Regarding `COc1cc2nc(CC(C)C)n(NC(=O)c3ccccc3Br)c(=O)c2cc1OC`, the AC50 under setting [1] was 7.94 µM [falling, partial curve, poor fit]. For `O=C(CSc1nnc(-c2ccco2)o1)Nc1ccccc1Cl`, the AC50 under setting [1] is 3.98 µM [falling, full curve, poor fit].

For `CN1C(=O)C2(c3ccccc31)N(C)CC(c1ccccn1)C21SC(=S)N(Cc2ccco2)C1=O` (stereo not drawn), the AC50 under setting [1] is 17.8 µM [falling, partial curve, poor fit]. Regarding `Cn1cc(CN2CCCC(CO)(Cc3ccccc3)C2)cn1` (stereo not drawn), the AC50 under setting [1] was 0.794 µM [falling, full curve]. The same measure, in the same setting: the value for `CCN(CC)CCNC(=S)Nc1ccc2nc(N3CCCC3)cc(C)c2c1` was 1.41 µM [falling, full curve, poor fit]; that for `S=C(NCCc1ccc(Cl)cc1)NC1CCCC1` was 12.6 µM [falling, single point]; that for `COC(=O)C1CCN(c2ccc([N+](=O)[O-])cc2[N+](=O)[O-])CC1` was 8.91 µM [rising, partial curve, poor fit].

For the compound `Cc1nc2ncnn2c(C)c1CCC(=O)NCCc1ccccc1`, the AC50 under setting [1] was 6.51 µM [falling, single point].

With `Cc1c(NC(=O)Nc2ccc(Cl)c(Cl)c2)c(=O)n(-c2ccccc2)n1C`, the AC50 under setting [1] was 6.51 µM [rising, single point].

For the compound `O=C(CCS(=O)(=O)c1cccc2nsnc12)NCc1ccccc1Cl`, the AC50 under setting [1] was 7.31 µM [falling, partial curve].

As to `CC(C)Oc1ccc2c(=O)c(-c3ccccc3)coc2c1`, the AC50 under setting [1] is 1.16 µM [rising, full curve].

`CCCc1nn(C)c(C(N)=O)c1[N+](=O)[O-]`: the AC50 under setting [1] is 2.82 µM [rising, single point]. As for `COc1ccc(NC(=O)Cn2c(=O)cc(C)c3c(C)nn(-c4cccc(Cl)c4C)c32)cc1OC`, under setting [1], the AC50 is 35.5 µM [falling, single point]. On to `O=C(COc1ccc2ccccc2c1)Nc1nnc(-c2ccco2)s1`, for which the AC50 under setting [1] is 0.794 µM [rising, full curve, poor fit]. `CC1CCc2sc(C(=O)NC3CCCCC3)cc2C1` (stereo not drawn): the AC50 under setting [1] was 2.06 µM [falling, full curve, poor fit].

On to `COC(=O)c1ccc(NC(=O)c2ccc(OC(C)=O)c(OC)c2)cc1`, for which the AC50 under setting [1] was 11.2 µM [falling, partial curve, poor fit].

With `CC(=O)Nc1nc2ccc(-c3nc4ccccc4o3)cc2s1`, where the note is “measured here: IkBa-CBG green luminescence”, the AC50 is 23.1 µM [falling, partial curve, poor fit].

A word on the AC50: it is the midpoint of the concentration-response curve, whichever way the signal moves.
